# According to the supplement of paper PMC10338343:
# ± gives the standard deviation. The entries are a selection whose mix differs from that of the whole data set. Many of these values have a large error.
# System: MILI (PIWIL2) piRISC loaded with Kctd7 piRNA (26 nt)
# Assay: pre-steady-state target cleavage rate (min^-1); MIWI and MILI are mouse PIWI proteins and EfPiwi is from a freshwater sponge; tags in brackets are library labels; higher = faster piRNA-guided slicing of the target
# Settings: guide: Kctd7 piRNA 5'p-UGUUAAUCUCUCAGAGAAGGUGACAG; auxiliary factor: 500 nM mouse GTSF1
# Procedure, shortened: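 The method was Cleave-'n-Seq, in which uncleaved targets from a transcribed, DNA-blocked target RNA library were sequenced after exposure to active affinity-purified piRISC carrying one synthetic guide, with or without GTSF1 partner protein. Reactions contained 0.1 nM library, 1 nM piRISC and, where present, 500 nM GTSF1 in HEPES–potassium acetate buffer at 33 °C for 0–8 or 0–960 min. Reads were normalised to depth and to weakly complementary targets, three trials were pooled, and k3 was capped at 0.0001 min^-1. The pre-steady-state cleavage rate came from a burst-and-steady-state fit.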
row,Sequence,pre-steady-state target cleavage rate
1,UAGUGACAGUGGAAGAGUGAGUCAUUAACA,0.00063 ± 0.011
2,UAGUGACAGACGUACUCUGAGAGAUUAACA,0.014 ± 0.0034
3,UAGUGACUCACCUUCUCUGACAGAAUAACA,0.00203 ± 0.0057
4,UAGUGACAGACCAUCUCUGAGAGAAUAACA,0.00126 ± 0.0095
5,UAGUGACAGUGGUUCUGUGUGAGAUUAACA,0.00167 ± 0.0059
6,UAGUGACAGUGGAAGAGAGAGAGAUAAUCA,0.000146 ± 0.04
7,UAGUGACAGACCUUCUCUCAGUGAUUAACA,0.00304 ± 0.0041
8,UAGUGUGUCUGCUUCUCUGAGAGAUUUUGA,0.000624 ± 0.01
9,UAGUGAGUCAGCUUCUCUGAGAGAUAUUGA,0.000914 ± 0.0098
10,UAGUGACUCACCUUGUCUGAGUGAUUAACA,0.00135 ± 0.0084
11,UAGUGACAGUCCUUCUCUGAGAGUAAAACA,0.000459 ± 0.013
12,UAGUGACAGUGCUUGAGUGAGAGAUUAACA,0.000543 ± 0.013
13,UAGUGACAGUGCUUCUCCGAGAGAUUAACA,0.0082 ± 0.0034
14,UAGUGACUCACCUUCUCUGAGUGUUUAACA,0.00112 ± 0.005
15,UAGUGUGUCACCUACUCUGAGAGAUUAAGA,0.1 ± 0.023
16,UAGUGACUCACCUUCUCUGUGAGAUAUUGA,0.00283 ± 0.0045
17,UAGUCUGUCACCUUCUCUGAGAGACUAACA,0.149 ± 0.027
18,UAGUGACAGUGGAACUCUGAGAGAUCAACA,0.000106 ± 0.045
19,UAGUGACUGUCCUUCUCUGAGAGAUUUUGA,0.000108 ± 0.06
20,UAGUCUGUCACCUUCUCUGACUCAUUUUGA,0.00094 ± 0.0055
21,UAGUGACACACCUUCUCUGACAGAUUUACA,0.00201 ± 0.0058
22,UAGUGACACACCUUGUCUGAGAGAUAUUGA,0.000475 ± 0.021
23,UAGUCUGACACCUUCUCUGAGAGAUAUUGA,0.000677 ± 0.0068

# Quoted from the listing:
# Value of UAGUGACACACCUUCUCUGACAGAUUUACA under pre-steady-state target cleavage rate: 0.00201 ± 0.0058
# Value of UAGUGACAGACGUACUCUGAGAGAUUAACA under pre-steady-state target cleavage rate: 0.014 ± 0.0034
# Value of UAGUGACUCACCUUGUCUGAGUGAUUAACA under pre-steady-state target cleavage rate: 0.00135 ± 0.0084
# Value of UAGUGACAGUGGAAGAGUGAGUCAUUAACA under pre-steady-state target cleavage rate: 0.00063 ± 0.011

# Following part:

row,Sequence,pre-steady-state target cleavage rate
1,UAGUGACAGUGGAAGACUGAGAGAUUUAACA,0.000421 ± 0.01
2,UAGUGACUCACCUUGCUCUGAGAGAUUAACA,0.048 ± 0.016
3,UAGUGACAGUCCUUCUCUGUCAGAUUAACA,0.00261 ± 0.0031
4,UAGUGACACAGCUUCUCUGAGAGAUUUUGA,0.000762 ± 0.01
5,UAGUGACACACCUUCUCUAGAGAGAUUAACA,0.000791 ± 0.015
6,UAGUGACAGUGGAAGUCUGAAAGAUUAACA,0.000301 ± 0.015
7,UAGUCUGUCUCCUACUCUGAGAGAUUAACA,0.157 ± 0.0082
8,UAGUGACACACCUUCUCUGAGACUUUAUGA,0.000264 ± 0.017
9,UAGUGACAGUGGAUCCUCUGAGAGAUUAACA,0.00199 ± 0.0026
10,UAGUGACACACCUUGAGUGAGAGAUUAAGA,0.00097 ± 0.013
11,UAGUGACAGUGCUUCCUGAGAGAUUAACA,0.00339 ± 0.0047
12,UAGUGACACACCAUCUCUGAGAGAUUAUGA,0.00752 ± 0.0041
13,UAGUGACACACCUUGUCUGAGACAUUAACA,0.0978 ± 0.026
14,UAGUGACAGUGGAAGAGACUGAGCAUUAACA,0.00045 ± 0.011
15,UAGUGACAGUGGAACUCUGAGAGAUUAACC [g2:g16:cont:t1C],0.000205 ± 0.032
16,UAGUGACAGUCCUUCUCUGAGACAUUUACA,0.000377 ± 0.014
17,UAGUAUGUCACCUUCUCUGAGAGAUUAACA,0.211 ± 0.019
18,UAGUGAGUCACCUUCUCUCUCAGAUUUUGA,0.000814 ± 0.014
19,UAGUGACAGUGGUUCUCUGAGAGAUAUAACA,0.000383 ± 0.013
20,UAGUGACAGUGGAACUCUGAGACGAUUAACA,0.00126 ± 0.015
21,UAGUGACAGUCCUUCUCUGAGAGUAUAACA,0.00121 ± 0.0043
22,UAGUGACUCACCUUCUCGUGAGAGAUUAACA,0.00068 ± 0.011
23,UAGUGACAGUCCUUCUCUCAGAGAUUAUCA,0.00297 ± 0.0045
